Where a name gives a salt, the structure may show the parent alone.
Tests used:
Type in all cases: cell-based
[1] = test system: human small cell lung cancer cell lines (DMS-114, DMS-153, SHP-77); experiment: In vitro inhibition of SCLC cell lines, summary statements; settings: across SCLC cell lines, depending on cell line tested, read-out: IC50 values, inhibits growth and/or kills SCLC cells
Method: (§1) In vitro inhibition of small cell lung cancer (SCLC) cell lines by the compound of COTI-4 was done with standard human tumor cells (established cell lines available from the American Type Tissue culture collection). Cells were plated in plastic tissue culture plates and grown under standard conditions for each cell line, in carbon dioxide/oxygen atmosphere in plastic tissue culture plates, in the presence of each of the compound of COTI-4, as well as COTI-2MO5 (or COTI-2) and COTI-219MO5 (or COTI-219) compounds (0-1 mM), versus Gleevec® (0-100 mM) at 35° C. for 3 days. Control cultures were treated with vehicle minus compound or Gleevec®. Cells were counted after 3 days in culture and at a cell density of no more than 80%.
as §1, with “of formula 1A” for “of COTI-4”, “of the compounds” for “of each”, “of Formula 1A” for “of the compound of COTI-4, as well as COTI-2MO5 (or COTI-2) and COTI-219MO5 (or COTI-219) compounds (0-1 mM),”

[2] = test system: A460 large cell carcinoma-derived cells (NSCLC; also printed H460); experiment: In vitro tumor cell growth inhibition, cell count after 3 days; settings: Homo sapiens, NCI-H460, 72 h, 35° C.
Method: (§2) In vitro inhibition of non-small cell lung cancer (NSCLC) cell lines by the compound of Formula 1B (COTI-4) was evaluated. […] Cells were counted after 3 days in culture and at a cell density of no more than 80%.
(§3) In vitro inhibition of non-small cell lung cancer (NSCLC) cell lines by the compound of Formula 1A is evaluated. […] Cells are counted after 3 days in culture and at a cell density of no more than 80%.
(§4) Briefly, cells were plated in plastic tissue culture plates and grown under standard conditions for each cell line, in carbon dioxide/oxygen atmosphere in plastic tissue culture plates, in the presence of COTI-4 or COTI-4A compounds at 35° C. for 3 days. Control cultures were treated with vehicle minus compound. Cells were counted after 3 days in culture and at a cell density of no more than 80%. The following cell lines, obtained from the National Cancer Institute, were tested: human SCLC cell lines DMS 153, DMS114, SHP77; human NSCLC cell lines H226, A460, A549; human breast cancer cell lines T47D, MCF7; human colon cancer cell line HT29; and, human Leukemia cell lines K562, HL60.

[3] = test system: H226 squamous cell carcinoma-derived cells (NSCLC); experiment: as above; settings: Homo sapiens, NCI-H226, 72 h, 35° C.
Method: as §2, §3, §4

## Cc1ccc(NC(=O)c2ccc(CN3CCN(C)CC3)cc2)cc1Nc1nccc(-c2cccnc2)n1 [Gleevec ®, imatinib mesylate, reference compound]
[1]
  IC50: 15 to 19 µM
[2]
  IC50: 81 µM
[3]
  IC50: 72 µM

Reference: patent publication US8466151B2, “Compounds and method for treatment of cancer” (Critical Outcome Technologies, Inc., priority 2007, dated 2013)
